# “Also recorded” adds a separate entry of the source. For at least one compound, name, drawing or mass did not settle the structure.
# By UniProt entry, the sequences of proteins in these tests, tags left out. Residues count along the entry.
# UniProt P41921, 17-483: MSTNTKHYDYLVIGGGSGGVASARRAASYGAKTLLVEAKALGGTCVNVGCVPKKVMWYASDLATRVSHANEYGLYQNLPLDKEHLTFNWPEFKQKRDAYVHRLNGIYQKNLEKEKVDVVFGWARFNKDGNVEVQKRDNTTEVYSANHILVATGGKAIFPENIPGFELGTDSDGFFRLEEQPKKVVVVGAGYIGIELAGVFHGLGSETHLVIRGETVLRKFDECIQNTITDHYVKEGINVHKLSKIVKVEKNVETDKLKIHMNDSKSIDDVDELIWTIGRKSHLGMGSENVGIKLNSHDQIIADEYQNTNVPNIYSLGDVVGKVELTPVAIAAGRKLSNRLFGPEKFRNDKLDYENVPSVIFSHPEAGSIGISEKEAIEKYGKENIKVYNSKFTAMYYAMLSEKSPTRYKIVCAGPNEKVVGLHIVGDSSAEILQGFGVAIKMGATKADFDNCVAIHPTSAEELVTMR
# UniProt P0AA25, whole entry: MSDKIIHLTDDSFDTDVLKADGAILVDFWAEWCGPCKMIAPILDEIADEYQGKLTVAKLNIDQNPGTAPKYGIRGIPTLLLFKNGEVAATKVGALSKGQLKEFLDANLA
# What was measured:
# [1] = system: freshly collected sorted patient CD138+ myeloma cells; conditions: for activity against sorted patient CD138+ myeloma cells: ex vivo, 24 hours, trypan blue exclusion
# Experimental: FIG. 3. […] Survival indicated in A-E was assessed using a trypan blue exclusion assay, counting viable cells using a hemocytometer after 24 hour exposure to the indicated drugs and drug concentrations.
# Patient bone marrow leukocytes were divided into myeloma (CD138+) and non-myeloma/normal leukocyte (CD138−) fractions employing sorting using magnetic bead technology in kit form (MACS CD138 microbeads, Miltenyi Biotech, Auburn, Calif.). Sorted cells were plated in a 96-well tissue culture plate at a concentration of 5×10^5 cells and dosed with indicated drug concentrations for 24 hours. Survival was assessed using a trypan blue exclusion assay.
# solid tumor cell lines = assay: Colony formation in solid tumor cancer cell lines; format: cell-based; conditions: 24 h exposure
# A549 cells [2] = format: cell-based, human; conditions: 24 hours, FACS probe
# Experimental: FIG. 7. […] A549 cells were exposed to the indicated concentration of chaetocin for 24 hours, with addition of glutathione or diluent 30 minutes prior to chaetocin addition. Glutathione levels were assessed by spectrophotometric assay as described below. […] Cells were treated with 10 μM chaetocin for 20 minutes prior to assay, and calculated intracellular chaetocin levels were measured by HPLC with adjusted for differences in average cell volume (calculated from measured cell radii ascertained via light microscopy). Shaded area represents 1 standard deviation confidence interval, with central bar reflecting the mean relative intracellular chaetocin level. […] Cells from 4 myeloma patients were exposed to 200 μM hydrogen peroxide for 24 hours prior to assay, with trypan blue exclusion used to assess surviving cells.
# Assessment of cellular oxidative stress: Cellular oxidative stress was assessed utilizing 5,6-chloromethyl-2′,7′-dichlorodihydrofluorescein diacetate or hydroethidium (Molecular Probes/Invitrogen, Carlsbad, Calif.) as cell permeable fluorescent probes and FACS analyses.
# [3] = system: acetylated histone H3 in U266, KAS 6/1 or OCI-MY5 human myeloma cells; assay: Acetylated histone H3 immunoblotting in myeloma cells; format: cell-based; conditions: U266, KAS 6/1 or OCI-MY5 myeloma cells
# [4] = system: U266 and MM1 myeloma cell lines; assay: Killing of other myeloma cell lines; format: cell-based, human; conditions: data not shown
# [5] = system: histone methyltransferase (HMT) H3:K9; conditions: cited from earlier work
# [6] = system: MM1S and MM1R myeloma cells; assay: Cross-resistance in dexamethasone-sensitive and -resistant myeloma cell lines; format: cell-based, human; conditions: MM1R (MM1RL) versus MM1S
# [7] = system: RPMI 8226 doxorubicin-sensitive and doxorubicin-resistant (8226 D40) myeloma cells; assay: Cross-resistance in doxorubicin-sensitive and -resistant myeloma cell lines; format: cell-based, human; conditions: RPMI 8226 paired lines; PgP overexpressing 8226 D40
# A549 cells [8] = assay: Intracellular reduced glutathione assay; format: cell-based, human; conditions: 24 hours
# [9] = system: thyroid cancer cell lines; assay: Colony forming assay in thyroid cancer cell lines and normal thyrocytes; format: cell-based; conditions: 24 hour exposure
# HeLa cells = assay: Transient thioredoxin overexpression in HeLa cells, trypan blue viability; format: cell-based, human; conditions: 100 nM, 24 hours
# Experimental: A. Transient overexpression of thioredoxin attenuates chaetocin—but not doxorubicin-induced cytotoxicity in HeLa cells. Transfected cells were treated for 24 hours, cell viability assessed using a trypan blue […] assay. Inset: immunoblotting showing increased level of thioredoxin in transiently transfected HeLa cells compared to empty-vector transfected cells. B. Model indicating how chaetocin competes with thioredoxin as a substrate for thioredoxin reductase, thereby serving to attenuate reduction of the thioredoxin reductase downstream substrate and effector thioredoxin. Figure numbers corresponding to experimental data supporting indicated effects are shown.
# Cell culture, transient transfections, and immunoblotting: HeLa cells were cultured in RPMI 1640 containing 5% FBS and 2 mM L-glutamine. Cells were passaged twice weekly and maintained in 37° C. in an atmosphere containing 95% air-5% CO2 (vol/vol). For transfections, 10^5 cells per well were plated in 12-well plates and were transfected with 1 μg pcDNA or pcDNA-Trx using standard Lipofectamine-Plus procedures. Transfection efficiency based on cells transfected with GFP was 80%. […] The cells were then trypsinized and manually counted in trypan blue to exclude dead cells. […] Protein was analyzed by BCA assay and lysates were electrophoresed on 15% SDS-PAGE gels and transferred to nitrocellulose. […]
# glutathione reductase = molecular target: T1, glutathione reductase (Saccharomyces cerevisiae, UniProt P41921); assay: Glutathione reductase activity assay; format: biochemical, yeast; conditions: up to 20 μM
# T1 construct: purchased Roche (Indianapolis, Ind.)
# OCI-MY5 myeloma cells = assay: Assessment of apoptosis in myeloma cells (electron microscopy, Hoechst 33258, mitochondrial membrane potential, PARP cleavage, DNA ladder); format: cell-based, human; conditions: Hoechst 33258 staining
# [10] = system: patient myeloma cells in unsorted bone marrow culture; assay: Mixed bone marrow culture, FACS (annexin V / 7-AAD); format: cell-based, human; conditions: 100 nM, 24 hours
# thioredoxin = molecular target: T2, thioredoxin (Escherichia coli, UniProt P0AA25); assay: Thioredoxin activity assay (insulin precipitation); format: biochemical, E. coli
# T2 construct: purchased Promega (Madison, Wis.)
# Experimental: HeLa cells were obtained from ATCC.
# Thioredoxin Activity Assay: The 100 μL reaction contained 100 mM potassium phosphate (pH 7.0), 2 mM EDTA, 0.13 mM bovine insulin, 3.9 μM E. coli thioredoxin and chaetocin as indicated. The reaction was initiated by addition of 0.33 mM DTT, and turbidity was monitored at 620 nm in a plate reader. The initial linear rate was calculated based on the slope of the line after an increase in absorbance (indicating precipitation of insulin) started to occur.
# [11] = system: acetylated histone H3 in A549 cells; assay: Acetylated histone H3 immunoblotting in A549 cells; format: cell-based, human; conditions: 24 hour drug exposure
# [12] = system: sorted patient neoplastic B-CLL cells; assay: Survival of sorted B-CLL cells, trypan blue exclusion; format: cell-based, human; conditions: versus matched neutrophils, 24 hour exposure
# [13] = system: sorted patient normal B-lymphocytes; assay: Survival of sorted normal B-lymphocytes, trypan blue exclusion; format: cell-based, human; conditions: versus matched neutrophils, 24 hour exposure
# normal plasma cells = assay: Survival of normal plasma cells and matched normal leucocytes, trypan blue exclusion; format: cell-based, human; conditions: 24 h exposure
# Experimental: A and B. Effects of chaetocin on survival of MGUS plasma cells and matched patient normal leucocytes from two patients (assessed by trypan blue exclusion assay, 24 h chaetocin exposures). C and D. Effects of chaetocin on survival of normal plasma cells and matched patient normal leucocytes from two patients (assessed by trypan blue exclusion assay, 24 h chaetocin exposures).
# A549 cells [14] = conditions: data not shown
# Experimental: FIG. 5. […] B. Assessment of intracellular (A549 cells) and extracellular (media) chaetocin concentrations as functions of time in response to addition of 10 μM chaetocin to tissue culture media at time 0. C. […] For B and C, chaetocin concentrations were determined as described in the text using HPLC. […] Cells were exposed to all agents for 24 hours, with colonies assessed 6-7 days subsequently as described below.
# FIG. 6. […] C. and D. The effects of glutathione pretreatment on intracellular (C) and extracellular (media, D) chaetocin concentration in response to treatment of A549 cells with 10 μM chaetocin for 5 min. Intracellular and extracellular chaetocin concentrations were assessed using HPLC as described in the text, with 100 μM glutathione added 5 minutes before chaetocin addition. […] Intracellular chaetocin concentrations were assessed using HPLC as described in the text. […]
# Colony formatting assays: Briefly, 650 suspended A549 cells obtained from trypsinization of stock flasks of subconfluent cell cultures were deposited into each of triplicate sets of 35 mm tissue culture plates and allowed to adhere for 16 hours. […] After drug removal and washing, cells were allowed to proliferate in drug-free medium for 7 to 10 days, and thereafter washed twice with serum-free phosphate buffered saline (PBS), stained with Coomassie blue, and then manually counted.
smiles,measurement,setting,value
"C[C@@H]1C[C@H]2[C@@H]3CCC4=CC(=O)C=C[C@]4(C)[C@@]3(F)[C@@H](O)C[C@]2(C)[C@@]1(O)C(=O)CO [dexamethasone, reference compound]",activity against sorted patient CD138+ myeloma cells,[1],largely resistant
CN1C(=O)[C@@]23C[C@]4([C@]56C[C@@]78SS[C@@](CO)(C(=O)N7[C@H]5Nc5ccccc56)N(C)C8=O)c5ccccc5N[C@@H]4N2C(=O)[C@]1(CO)SS3 [chaetocin],killing of solid tumor cell lines,solid tumor cell lines,readily killed
same,cellular oxidative stress,A549 cells [2],induced increases in levels of cellular oxidative stress in a dose-dependent fashion
same,cellular levels of acetylated histone H3,[3],no effects on cellular levels of acetylated histone H3
same,killing of other tested myeloma cell lines,[4],similarly facilely killed
same,histone methyltransferase inhibition,[5],inhibitor of histone methyltransferase (HMT) H3:K9
same,sensitivity of dexamethasone-resistant versus dexamethasone-sensitive cells,[6],as sensitive to chaetocin-induced cytotoxicity as were dexamethasone-sensitive MM1S cells; also recorded: equally sensitive
same,activity against sorted patient CD138+ myeloma cells,[1],dramatic anti-myeloma activity
same,anti-myeloma effects compared with doxorubicin and dexamethasone,"[1]; identical conditions, patient CD138+ cells",uniformly superior
same,cross resistance in doxorubicin-resistant cells,[7],moderate cross resistance; also recorded: only modest cross-resistance
same,intracellular reduced glutathione,A549 cells [8],did not appreciably deplete intracellular reduced glutathione
same,selectivity for thyroid cancer cell lines over normal thyrocytes,[9],kill thyroid cancer cell lines more readily (selectively) than normal thyrocytes
same,effect of transient Trx overexpression on drug-induced cell death,HeLa cells,significantly attenuated chaetocin-induced cell death
same,glutathione reductase activity,glutathione reductase,unaffected
same,apoptosis induction,OCI-MY5 myeloma cells,induction of apoptotic morphological changes
same,killing of myeloma cells versus neutrophils/monocytes in mixed culture,[10],killed myeloma cells with selectivity
same,concentration to inhibit Trx relative to that required to similarly inhibit TrxR1,thioredoxin,about 20 times
same,Trx activity,thioredoxin; up to 20 μM,does not appreciably effect Trx activity
same,cellular levels of acetylated histone H3,[11],increased acetylated histone H3 at high nanomolar concentrations
same,differential killing of B-CLL cells,[12],did not differentially kill
same,differential killing of normal B-lymphocytes,[13],did not differentially kill
same,activity against normal plasma cells,normal plasma cells,activity against normal plasma cells
CCC(=O)CCCCC[C@@H]1NC(=O)[C@H]2CCCCN2C(=O)[C@H]([C@@H](C)CC)NC(=O)[C@H](Cc2cn(OC)c3ccccc23)NC1=O [apicidin],effect of NAC on reductions in colony formation caused by HDAC inhibitors,A549 cells [14],unaffected by NAC
